# Measured values as given in the supplement of paper PMC10032668.
# Amino acid sequences for entries named in this document (tags omitted).
# PLK1, P53350, UniProt P53350, whole entry: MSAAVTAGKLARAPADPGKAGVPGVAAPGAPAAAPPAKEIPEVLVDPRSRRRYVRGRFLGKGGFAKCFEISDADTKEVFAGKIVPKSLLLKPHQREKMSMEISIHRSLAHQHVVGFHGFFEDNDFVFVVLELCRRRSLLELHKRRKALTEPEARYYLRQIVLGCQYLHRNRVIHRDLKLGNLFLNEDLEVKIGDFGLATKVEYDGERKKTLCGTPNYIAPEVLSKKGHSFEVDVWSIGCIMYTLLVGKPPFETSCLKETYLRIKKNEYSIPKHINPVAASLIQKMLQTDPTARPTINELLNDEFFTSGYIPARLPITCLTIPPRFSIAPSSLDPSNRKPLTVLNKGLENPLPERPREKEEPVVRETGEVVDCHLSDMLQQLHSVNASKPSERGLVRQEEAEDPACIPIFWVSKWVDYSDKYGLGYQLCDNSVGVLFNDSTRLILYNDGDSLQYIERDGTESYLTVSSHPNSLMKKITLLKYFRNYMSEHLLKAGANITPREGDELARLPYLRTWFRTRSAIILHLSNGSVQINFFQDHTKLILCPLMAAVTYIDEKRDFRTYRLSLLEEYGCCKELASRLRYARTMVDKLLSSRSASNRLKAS
# LANCL1, O43813, UniProt O43813, whole entry: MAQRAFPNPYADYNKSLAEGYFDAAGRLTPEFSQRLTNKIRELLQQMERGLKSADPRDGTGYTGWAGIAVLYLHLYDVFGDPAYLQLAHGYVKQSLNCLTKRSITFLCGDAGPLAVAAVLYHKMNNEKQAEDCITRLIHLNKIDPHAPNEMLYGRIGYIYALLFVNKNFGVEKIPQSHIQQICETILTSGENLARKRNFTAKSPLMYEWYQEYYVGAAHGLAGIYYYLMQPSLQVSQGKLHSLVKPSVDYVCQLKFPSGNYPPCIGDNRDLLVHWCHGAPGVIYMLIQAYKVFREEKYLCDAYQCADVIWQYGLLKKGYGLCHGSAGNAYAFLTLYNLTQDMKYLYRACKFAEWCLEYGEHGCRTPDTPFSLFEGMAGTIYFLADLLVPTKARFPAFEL
# SS18, Q15532, UniProt Q15532, whole entry: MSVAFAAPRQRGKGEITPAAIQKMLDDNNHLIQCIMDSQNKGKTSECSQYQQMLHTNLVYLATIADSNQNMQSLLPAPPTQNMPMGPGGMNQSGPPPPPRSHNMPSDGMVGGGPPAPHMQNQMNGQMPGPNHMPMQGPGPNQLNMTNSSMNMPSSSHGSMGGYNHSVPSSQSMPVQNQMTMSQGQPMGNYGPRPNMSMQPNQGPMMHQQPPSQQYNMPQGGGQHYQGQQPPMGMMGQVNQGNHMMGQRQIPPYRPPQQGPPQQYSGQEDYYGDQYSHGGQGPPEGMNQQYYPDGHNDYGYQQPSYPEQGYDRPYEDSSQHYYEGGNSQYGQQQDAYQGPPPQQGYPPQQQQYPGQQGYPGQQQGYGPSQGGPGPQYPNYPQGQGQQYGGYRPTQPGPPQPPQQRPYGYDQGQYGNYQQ
# AP2A2, O94973, UniProt O94973, whole entry: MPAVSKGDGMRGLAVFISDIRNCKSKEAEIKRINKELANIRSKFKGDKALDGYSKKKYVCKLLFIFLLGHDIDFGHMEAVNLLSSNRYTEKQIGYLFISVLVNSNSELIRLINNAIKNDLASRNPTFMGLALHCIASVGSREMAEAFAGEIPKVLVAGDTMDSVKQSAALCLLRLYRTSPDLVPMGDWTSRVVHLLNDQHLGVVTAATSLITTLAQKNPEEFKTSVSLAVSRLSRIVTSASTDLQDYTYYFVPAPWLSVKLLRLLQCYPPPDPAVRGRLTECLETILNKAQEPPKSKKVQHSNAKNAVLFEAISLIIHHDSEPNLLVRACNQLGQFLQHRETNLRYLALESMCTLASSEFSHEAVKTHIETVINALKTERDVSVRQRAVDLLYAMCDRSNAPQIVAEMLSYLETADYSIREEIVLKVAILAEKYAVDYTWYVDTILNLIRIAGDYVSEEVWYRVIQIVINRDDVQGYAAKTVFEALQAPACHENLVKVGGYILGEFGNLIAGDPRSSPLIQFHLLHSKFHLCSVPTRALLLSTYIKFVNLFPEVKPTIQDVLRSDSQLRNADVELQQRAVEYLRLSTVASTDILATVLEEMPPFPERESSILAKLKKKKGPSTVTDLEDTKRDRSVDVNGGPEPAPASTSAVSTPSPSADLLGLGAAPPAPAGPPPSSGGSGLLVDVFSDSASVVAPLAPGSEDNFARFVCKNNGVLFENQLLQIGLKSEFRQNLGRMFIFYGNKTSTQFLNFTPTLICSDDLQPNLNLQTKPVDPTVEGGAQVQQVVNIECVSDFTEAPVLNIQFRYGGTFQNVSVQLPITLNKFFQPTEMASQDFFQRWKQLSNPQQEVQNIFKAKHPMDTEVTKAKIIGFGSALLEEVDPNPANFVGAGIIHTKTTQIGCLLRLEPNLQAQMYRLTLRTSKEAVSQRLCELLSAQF
# CKS1B, P61024, UniProt P61024, whole entry: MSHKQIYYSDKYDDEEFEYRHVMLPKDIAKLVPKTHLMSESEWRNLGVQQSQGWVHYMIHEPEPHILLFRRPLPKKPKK
# CKS2, P33552, UniProt P33552, whole entry: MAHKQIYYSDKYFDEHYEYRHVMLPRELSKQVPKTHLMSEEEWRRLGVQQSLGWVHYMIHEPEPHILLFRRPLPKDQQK
# DNAJB1, P25685, UniProt P25685, whole entry: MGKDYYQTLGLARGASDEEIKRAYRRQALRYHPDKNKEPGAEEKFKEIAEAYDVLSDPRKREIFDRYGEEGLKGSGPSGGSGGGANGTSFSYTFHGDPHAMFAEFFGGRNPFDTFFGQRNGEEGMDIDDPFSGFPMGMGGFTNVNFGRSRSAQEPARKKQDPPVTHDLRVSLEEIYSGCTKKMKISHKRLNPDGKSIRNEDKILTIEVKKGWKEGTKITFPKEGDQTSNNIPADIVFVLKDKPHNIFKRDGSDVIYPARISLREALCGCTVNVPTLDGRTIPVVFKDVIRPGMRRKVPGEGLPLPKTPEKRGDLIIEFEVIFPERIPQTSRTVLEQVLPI
# GABARAP, O95166, UniProt O95166, whole entry: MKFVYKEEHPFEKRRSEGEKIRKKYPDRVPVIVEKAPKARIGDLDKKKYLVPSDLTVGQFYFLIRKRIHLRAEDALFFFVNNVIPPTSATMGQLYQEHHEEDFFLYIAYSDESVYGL
# Some of the results follow. The list holds hits alone, and they repeat only in part.
# Tests used:
# Experiment in all cases: PRISMA enrichment of interactor (LFQ) in peptide spot vs all other peptide spots (log2 fold change); higher = stronger / more specific binding of the interactor to the peptide
# [1] = target: ANXA1, P04083
# Description: (§1)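 PRISMA: 221 full-length sORF-encoded peptides (3-15 aa), plus SOS1/GLUT1 control peptides, were spot-synthesized on cellulose membranes in triplicate. Membranes were incubated with HEK293T lysate, and bound proteins were identified by LC-MS/MS with LFQ. Enrichment is the log2 fold change versus all other peptide spots; only significant interactors are listed (cutoff c=6, x0=2.8).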
# [2] = target: CC2D1A, Q6P1N0
# Description: as §1
# [3] = target: CSNK1A1, P48729
# Description: as §1
# [4] = target: CSNK1E, P49674
# Description: as §1
# [5] = target: FRYL, O94915
# Description: as §1
# [6] = target: PLK1, P53350
# Description: as §1
# [7] = target: RAE1, P78406
# Description: as §1
# [8] = target: WDR5, P61964
# Description: as §1
# [9] = target: ANXA7, P20073
# Description: as §1
# [10] = target: COA7, Q96BR5
# Description: as §1
# [11] = target: FAM168A, Q92567
# Description: as §1
# [12] = target: LANCL1, O43813
# Description: as §1
# [13] = target: MAPK1IP1L, Q8NDC0
# Description: as §1
# [14] = target: PDCD6, O75340
# Description: as §1
# [15] = target: SRI, P30626
# Description: as §1
# [16] = target: SS18, Q15532
# Description: as §1
# [17] = target: AOC3, Q16853
# Description: as §1
# [18] = target: DFFA, O00273
# Description: as §1
# [19] = target: GET1, O00258
# Description: as §1
# [20] = target: RMDN3, Q96TC7
# Description: as §1
# [21] = target: ZBTB11, O95625
# Description: as §1
# [22] = target: ZC3HAV1, Q7Z2W4
# Description: as §1
# [23] = target: NQO2, P16083
# Description: as §1
# [24] = target: SEPTIN8, Q92599
# Description: as §1
# [25] = target: AP2A1, O95782
# Description: as §1
# [26] = target: AP2A2, O94973
# Description: as §1
# [27] = target: AP2B1, P63010
# Description: as §1
# [28] = target: AP2M1, Q96CW1
# Description: as §1
# [29] = target: CKS1B, P61024
# Description: as §1
# [30] = target: CKS2, P33552
# Description: as §1
# [31] = target: CXorf56, Q9H5V9
# Description: as §1
# [32] = target: DAZAP1, Q96EP5
# Description: as §1
# [33] = target: DERPC, P0CG12
# Description: as §1
# [34] = target: DNAJA3, Q96EY1
# Description: as §1
# [35] = target: DNAJB1, P25685
# Description: as §1
# [36] = target: DNAJB4, Q9UDY4
# Description: as §1
# [37] = target: ENDOG, Q14249
# Description: as §1
# [38] = target: FKBP2, P26885
# Description: as §1
# [39] = target: GABARAP, O95166
# Description: as §1
# [40] = target: NUDT16L1, Q9BRJ7
# Description: as §1
# [41] = target: SSBP1, Q04837
# Description: as §1
binder,measurement,setting,value
MRVGGSEDIF [ATG3],PRISMA enrichment of interactor (log2),[1],5.4
same,PRISMA enrichment of interactor (log2),[2],5.45
same,PRISMA enrichment of interactor (log2),[3],7.16
same,PRISMA enrichment of interactor (log2),[4],7.01
same,PRISMA enrichment of interactor (log2),[5],4.63
same,PRISMA enrichment of interactor (log2),[6],7.97
same,PRISMA enrichment of interactor (log2),[7],5.22
same,PRISMA enrichment of interactor (log2),[8],7.05
MPVWTL [STRAP],PRISMA enrichment of interactor (log2),[9],4.78
same,PRISMA enrichment of interactor (log2),[10],5.68
same,PRISMA enrichment of interactor (log2),[11],4.89
same,PRISMA enrichment of interactor (log2),[12],4.74
same,PRISMA enrichment of interactor (log2),[13],4.84
same,PRISMA enrichment of interactor (log2),[14],6.57
same,PRISMA enrichment of interactor (log2),[15],4.92
same,PRISMA enrichment of interactor (log2),[16],4.06
MELKTAA [SLC52A3],PRISMA enrichment of interactor (log2),[17],6.66
same,PRISMA enrichment of interactor (log2),[18],8.33
same,PRISMA enrichment of interactor (log2),[19],3.99
same,PRISMA enrichment of interactor (log2),[20],6.15
same,PRISMA enrichment of interactor (log2),[21],4.18
same,PRISMA enrichment of interactor (log2),[22],6.09
MAVAAAVGAA [PCM1],PRISMA enrichment of interactor (log2),[17],7.43
same,PRISMA enrichment of interactor (log2),[23],5.19
same,PRISMA enrichment of interactor (log2),[24],5.95
MVWQALDS [ARMC1],PRISMA enrichment of interactor (log2),[25],7.21
same,PRISMA enrichment of interactor (log2),[26],6.92
same,PRISMA enrichment of interactor (log2),[27],6.61
same,PRISMA enrichment of interactor (log2),[28],6.89
same,PRISMA enrichment of interactor (log2),[29],5.21
same,PRISMA enrichment of interactor (log2),[30],5.06
same,PRISMA enrichment of interactor (log2),[4],6.42
same,PRISMA enrichment of interactor (log2),[31],5.61
same,PRISMA enrichment of interactor (log2),[32],5.31
same,PRISMA enrichment of interactor (log2),[33],5.55
same,PRISMA enrichment of interactor (log2),[34],5.97
same,PRISMA enrichment of interactor (log2),[35],6.14
same,PRISMA enrichment of interactor (log2),[36],4.75
same,PRISMA enrichment of interactor (log2),[37],5.09
same,PRISMA enrichment of interactor (log2),[38],5.56
same,PRISMA enrichment of interactor (log2),[39],4.24
same,PRISMA enrichment of interactor (log2),[40],5.2
same,PRISMA enrichment of interactor (log2),[6],5.37
same,PRISMA enrichment of interactor (log2),[7],5.48
same,PRISMA enrichment of interactor (log2),[41],5.4

# Two entries picked at random from those above, as already listed:
binder,measurement,setting,value
MELKTAA [SLC52A3],PRISMA enrichment of interactor (log2),[20],6.15
MRVGGSEDIF [ATG3],PRISMA enrichment of interactor (log2),[3],7.16
